Assay results from PMC4154663, “Bipartite Recognition of DNA by TCF/Pangolin Is Remarkably Flexible and Contributes to Transcriptional Responsiveness and Tissue Specificity of Wingless Signaling”.
The exact form of at least one protein or probe is not confirmed. At least one verdict was read from the data and is not stated in words by the source. Where a protein sequence is shown, tags need not be part of it.

Biological target: T1, TCF/Pangolin HMG + C-clamp fragment (UniProt P91943)
T1 sequence (looked up, limits assumed): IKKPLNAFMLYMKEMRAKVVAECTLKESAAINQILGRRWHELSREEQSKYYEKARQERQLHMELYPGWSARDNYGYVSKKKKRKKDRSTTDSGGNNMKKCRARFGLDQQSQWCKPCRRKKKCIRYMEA
Assay: EMSA
Conditions: 10 mM Tris-HCl pH 7.5, 50 mM KCl, 1 mM DTT, 0.05% NP40, 3.5% glycerol, 50 ug/ml poly(dIdC); 6 pmol protein, 0-2.4 pmol competitor; recombinant protein; protein details: His (pET52b(+), XmaI/SacI); label: 5' IRD700 on both strands

Sequence: TACGATAAGATCAAAGGTGCAGTGCCGCCAGTCGTA / TACGACTGGCGGCACTGCACCTTTGATCTTATCGAC [IR-AK6 labeled probe]
- binding result: binds
